Experimental data from patent US7799758B2 (priority 2006, dated 2010).
No end group written: not given here.

Test: general procedure: Fmoc solid-phase peptide synthesis; Tentagel-S-RAM; DIC/HOBt/DIPEA
Conditions: whole synthesis, scale 100 mg resin

Work on GHRPLDKKREEAPSLRPAPPPISGGGYR-NH2 yielded a crude mass of 75 mg and an isolated mass of 48 mg.
